Results from US20240226211A9, “SEAWEED EXTRACTS, ISOLATED COMPOUNDS, AND METHODS OF TREATMENT” (University of Florida Research Foundation, Incorporated, priority 2017, published 2024).
Some results were stated once for a whole list of compounds, not compound by compound.

System: Cox2
Experiment: Cox2 transcript levels in RAW264.7 macrophage cells
Format: cell-based, mouse
Details: 10 μM Compound 1, IFN-γ
Description: The RNeasy Mini Kit (Qiagen) was used to collect total RNA from cells, while for mouse tissue, TRIzol reagent (Invitrogen) was used. In each case, total RNAs (2 μg) were reverse-transcribed into cDNAs, which were used as templates for TaqMan gene expression assay (Applied Biosystems) and detected using the 7300 Real-Time PCR System (Applied Biosystems). Each qPCR sample was tested in triplicate as a 25 μL total reaction volume (12.5 μL of Taqman 2× universal master mix, 1.25 μL of a 20× TaqMan gene expression assay probe, 1 μL of the above cDNA, and 10.25 μL of RNase-free sterile water). The qPCR method was designed as following: 50° C. for 2 min, 95° C. for 10 min, and 40 cycles of 95° C. for 15 s and 60° C. for 1 min. Endogenous controls used included GAPDH for IMR-32 cells and β-actin to normalize for RAW264.7 cells and mouse tissues.
RAW264.7 cells were seeded in 6-well plates (8×10^5 cells/well) and incubated at 37° C. overnight.

## CC(C)=CCC/C(C)=C/Cc1cc(O)c(Br)cc1O [Compound 1, (E)-2-bromo-5-(3,7-dimethylocta-2,6-dien-1-yl)benzene-1,4-diol]
  reduction of Cox2 transcript levels: > 90%
